Data source: PubChem BioAssay AID1259254 (NCATS, 2017)

Assay: 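Gene knock-downs that lead to re-replication, shown by excess G2 DNA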 (primary screen)
Cells: human HCT116 colorectal cancer cells
Knock-down reagent: single siRNA against human genes
Timing: 3 days
Detection: 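Nuclei stained with Hoechst and imaged; cell-cycle phase assigned by DNA content; G2 share scaled per plate, non-targeting siRNA 0%, GMNN siRNA 100%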
Reading the numbers: G2 robust z-score and G2 cells, % of GMNN control: higher = more G2 cells, more excess DNA replication; raw share of cells in G2: higher = larger share of cells with G2 DNA content
Active means: 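An siRNA counts as active if its G2 robust z-score lies at least 5 MADs above the screen median; here such calls match roughly 38% of GMNN control or more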
This is a random part of about 59,000 reagents. About 1,550 of all reagents (2.6%) count as active. 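G2 share is only a proxy for re-replication; each gene was hit by three separate siRNAs, and active genes were retested.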 The raw values are shown without normalisation. The numbers tell different reagents against one gene apart. Reagent sequences are not shown. Not given: the amount of reagent.

| gene | reagent | G2 robust z-score | G2 cells, % of GMNN control | raw share of cells in G2 (%) | call |
| --- | --- | --- | --- | --- | --- |
| CFAP300 | 1 | 4.97 | 37.9 | 20.2 | inactive |
| CFAP300 | 2 | -0.809 | -2.72 | 2.15 | inactive |
| CFAP300 | 3 | 1.16 | 11.1 | 6.45 | inactive |
| PES1 | 1 | 7.66 | 56.9 | 29.2 | active |
| PES1 | 2 | 2.01 | 17.1 | 9.88 | inactive |
| PES1 | 3 | -0.686 | -1.86 | 3.23 | inactive |
| TTC7B | 1 | -0.252 | 1.19 | 5.2 | inactive |
| TTC7B | 2 | -0.824 | -2.83 | 4.61 | inactive |
| TTC7B | 3 | 0.547 | 6.82 | 7.2 | inactive |
| HEATR3 | 1 | -0.772 | -2.47 | 3.58 | inactive |
| HEATR3 | 2 | 0.213 | 4.47 | 5.99 | inactive |
| HEATR3 | 3 | 0.358 | 5.49 | 4.89 | inactive |
| CD164L2 | 1 | -0.119 | 2.13 | 5.55 | inactive |
| CD164L2 | 2 | 3.22 | 25.6 | 12.6 | inactive |
| CD164L2 | 3 | 0.225 | 4.55 | 5.39 | inactive |
| NSD3 | 1 | 5.38 | 40.8 | 24.3 | active |
| NSD3 | 2 | -0.0306 | 2.75 | 5.43 | inactive |
| NSD3 | 3 | 0.674 | 7.71 | 7.55 | inactive |
| PIP4P2 | 1 | 1.03 | 10.2 | 8.44 | inactive |
| PIP4P2 | 2 | -0.598 | -1.24 | 3.62 | inactive |
| PIP4P2 | 3 | 0.098 | 3.66 | 4.3 | inactive |
| NEO1 | 1 | 0.0279 | 3.16 | 6.72 | inactive |
| NEO1 | 2 | -0.267 | 1.09 | 3.55 | inactive |
| NEO1 | 3 | -1.2 | -5.5 | 3.23 | inactive |
| GATA6 | 1 | 1.22 | 11.6 | 10.3 | inactive |
| GATA6 | 2 | 1.74 | 15.2 | 9.49 | inactive |
| GATA6 | 3 | 0.0617 | 3.4 | 4.34 | inactive |
| OR10S1 | 1 | -0.5 | -0.549 | 3.38 | inactive |
| OR10S1 | 2 | -0.859 | -3.08 | 2.08 | inactive |
| OR10S1 | 3 | 2.83 | 22.9 | 10.5 | inactive |
